This test concerns the target 3xFLAG∷RRF-3 (C. elegans) (UniProt G5EE53). Description: SEC. Background: In gel filtration, larger molecules generally elute earlier.

Amino acid sequences for entries named in this document (tags omitted). A change or cut given only in a name is not applied to a line headed by its entry.
UniProt G5EE53: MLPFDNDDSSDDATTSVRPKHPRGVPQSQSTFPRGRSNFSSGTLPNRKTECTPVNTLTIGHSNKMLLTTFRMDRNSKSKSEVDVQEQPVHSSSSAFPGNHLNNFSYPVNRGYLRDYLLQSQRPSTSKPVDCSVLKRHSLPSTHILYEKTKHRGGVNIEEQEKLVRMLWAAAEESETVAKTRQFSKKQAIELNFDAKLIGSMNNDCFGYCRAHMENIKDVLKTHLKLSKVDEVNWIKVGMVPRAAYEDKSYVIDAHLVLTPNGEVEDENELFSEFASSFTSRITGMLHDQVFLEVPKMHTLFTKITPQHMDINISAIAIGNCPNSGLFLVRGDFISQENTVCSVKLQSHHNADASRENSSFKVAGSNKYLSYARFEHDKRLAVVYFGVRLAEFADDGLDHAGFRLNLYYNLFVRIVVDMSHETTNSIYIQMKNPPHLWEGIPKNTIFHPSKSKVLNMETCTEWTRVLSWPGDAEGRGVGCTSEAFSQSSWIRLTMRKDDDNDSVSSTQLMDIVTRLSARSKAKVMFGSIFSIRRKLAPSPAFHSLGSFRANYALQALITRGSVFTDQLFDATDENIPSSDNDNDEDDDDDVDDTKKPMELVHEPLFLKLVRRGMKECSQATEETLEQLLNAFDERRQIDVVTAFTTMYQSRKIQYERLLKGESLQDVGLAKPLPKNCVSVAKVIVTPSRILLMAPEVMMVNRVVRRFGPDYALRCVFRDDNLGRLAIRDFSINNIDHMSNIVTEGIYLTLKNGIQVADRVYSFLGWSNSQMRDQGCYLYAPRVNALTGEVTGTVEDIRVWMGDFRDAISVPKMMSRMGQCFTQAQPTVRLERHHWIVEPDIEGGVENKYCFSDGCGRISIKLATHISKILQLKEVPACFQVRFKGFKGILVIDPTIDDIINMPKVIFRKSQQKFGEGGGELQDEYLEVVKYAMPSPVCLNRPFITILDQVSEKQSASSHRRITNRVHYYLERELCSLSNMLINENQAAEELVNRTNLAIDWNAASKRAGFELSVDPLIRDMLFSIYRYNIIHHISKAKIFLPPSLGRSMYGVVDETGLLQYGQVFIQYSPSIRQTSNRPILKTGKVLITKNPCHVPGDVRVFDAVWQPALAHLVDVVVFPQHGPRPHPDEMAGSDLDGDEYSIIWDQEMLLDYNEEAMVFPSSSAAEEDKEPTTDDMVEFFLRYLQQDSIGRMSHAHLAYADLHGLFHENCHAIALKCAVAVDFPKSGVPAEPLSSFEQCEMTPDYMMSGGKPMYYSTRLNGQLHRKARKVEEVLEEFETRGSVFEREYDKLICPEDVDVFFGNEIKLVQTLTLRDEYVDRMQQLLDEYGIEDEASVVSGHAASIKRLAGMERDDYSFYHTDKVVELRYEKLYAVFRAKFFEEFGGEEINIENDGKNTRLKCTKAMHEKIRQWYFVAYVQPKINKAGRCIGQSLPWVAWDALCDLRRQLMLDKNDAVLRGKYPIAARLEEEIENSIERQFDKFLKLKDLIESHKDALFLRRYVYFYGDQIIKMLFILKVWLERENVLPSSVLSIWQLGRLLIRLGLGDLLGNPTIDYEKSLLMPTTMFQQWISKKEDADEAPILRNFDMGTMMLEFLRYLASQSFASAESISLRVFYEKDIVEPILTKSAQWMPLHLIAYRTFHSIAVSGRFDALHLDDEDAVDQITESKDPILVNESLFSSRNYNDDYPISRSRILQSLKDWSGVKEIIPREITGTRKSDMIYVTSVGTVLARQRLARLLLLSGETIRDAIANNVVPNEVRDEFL

These are yes or no findings as the source states them, for the method shown. Binding calls can cover weak binding; strength is not graded here.

For “GTSF-1 (T06A10.3), endogenous (from UniProt A3QMD6)”, the binding result was “binds”.

The record behind these values is publication doi:10.1101/271270.
